The source of these data is publication PMC10135852.

Results are given in words; binding and its absence hold for the method and conditions named. In cells and extracts the contact can be indirect. A yes stands for co-enrichment or nearness to the bait. Other partners may have been found.

T1: Mitochondrial inner membrane protein (Mitofilin/Mic60) (mouse (endogenous in mouse cardiac mitochondria)) (UniProt Q8CAQ8)
T1 sequence: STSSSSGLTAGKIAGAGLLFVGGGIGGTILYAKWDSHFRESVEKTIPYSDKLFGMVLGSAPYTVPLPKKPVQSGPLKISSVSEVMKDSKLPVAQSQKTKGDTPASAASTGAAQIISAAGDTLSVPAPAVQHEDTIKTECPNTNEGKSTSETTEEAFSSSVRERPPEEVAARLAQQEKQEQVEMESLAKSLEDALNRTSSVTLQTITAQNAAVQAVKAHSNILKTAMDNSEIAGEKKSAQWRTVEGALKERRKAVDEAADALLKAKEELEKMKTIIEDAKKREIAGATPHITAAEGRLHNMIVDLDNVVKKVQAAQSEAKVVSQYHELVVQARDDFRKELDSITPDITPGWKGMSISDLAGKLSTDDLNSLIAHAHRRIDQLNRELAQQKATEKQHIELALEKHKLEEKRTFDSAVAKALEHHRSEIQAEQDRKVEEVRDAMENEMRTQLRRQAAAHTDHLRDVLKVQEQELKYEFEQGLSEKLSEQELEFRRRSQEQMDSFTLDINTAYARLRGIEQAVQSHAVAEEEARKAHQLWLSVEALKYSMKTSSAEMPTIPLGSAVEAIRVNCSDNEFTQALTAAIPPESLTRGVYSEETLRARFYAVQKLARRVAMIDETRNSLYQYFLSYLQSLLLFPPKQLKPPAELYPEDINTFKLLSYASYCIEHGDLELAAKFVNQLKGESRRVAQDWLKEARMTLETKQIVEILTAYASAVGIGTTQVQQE

B1: SLC25A3 (protein, UniProt Q8VEM8 46-357)
chain: AVEEYSCEFGSMKYYALCGFGGVLSCGLTHTAVVPLDLVKCRMQVDPQKYKGIFNGFSITLKEDGVRGLAKGWAPTLIGYSMQGLCKFGFYEVFKALYSNILGEENTYLWRTSLYLASSASAEFFADIALAPMEAAKVRIQTQPGYANTLREAVPKMYKEEGLNAFYKGVAPLWMRQIPYTMMKFACFERTVEALYKFVVPKPRSECTKAEQLVVTFVAGYIAGVFCAIVSHPADSVVSVLNKEKGSTASQVLQRLGFRGVWKGLFARIIMIGTLTALQWFIYDSVKVYFRLPRPPPPEMPESLKKKLGLTE
B2: SLC25A5 (protein, UniProt P51881 1-298)
chain: MTDAAVSFAKDFLAGGVAAAISKTAVAPIERVKLLLQVQHASKQITADKQYKGIIDCVVRIPKEQGVLSFWRGNLANVIRYFPTQALNFAFKDKYKQIFLGGVDKRTQFWRYFAGNLASGGAAGATSLCFVYPLDFARTRLAADVGKAGAEREFKGLGDCLVKIYKSDGIKGLYQGFNVSVQGIIIYRAAYFGIYDTAKGMLPDPKNTHIFISWMIAQSVTAVAGLTSYPFDTVRRRMMMQSGRKGTDIMYTGTLDCWRKIARDEGSKAFFKGAWSNVLRGMGGAFVLVLYDEIKKYT
B3: mitochondrial contact site and cristae organizing system (MICOS) subunit 19 (protein, UniProt Q9CRB9 1-227)
chain: MGGTASTRRVTFEADENENITVVKGIRLSENVIDRMKESSPSGSKSQRYSSVYGASVSDEDLKRRVAEELALEQAKKESEHQRRLKQARDLERERAAANEQLTRAVLRERISSEEERMKAKHLARQLEEKDRVMRKQDAFYKEQLARLEERSSEFYKVTTEEYQKAAEEVEAKFKRYEYHPVCADLQTKILQCYRQNTQQTLSCSALASQYMHCVNHAKQSMLEKGG
B4: SLC25A22 (protein, UniProt Q9D6M3 1-323)
chain: MADKQISLPAKLINGGIAGLIGVTCVFPIDLAKTRLQNQQNGQRMYASMSDCLIKTIRSEGYFGMYRGAAVNLTLVTPEKAIKLAANDFFRHQLSKDGQKLTLPKEMLAGCGAGTCQVIVTTPMEMLKIQLQDAGRIAAQRKILAAQAQLSAQGGAQPSVEAPAPPRPTATQLTRDLLRNHGIAGLYKGLGATLLRDVPFSIVYFPLFANLNQLGRPSSEEKSPFYVSFLAGCVAGSAAAVAVNPCDVVKTRLQSLERGVNEDTYSGFLDCARKIWRHEGPSAFLKGAYCRALVIAPLFGIAQVVYFLGIAESLLGLLQEPQA
B5: SLC25A20 (protein, UniProt Q9Z2Z6 1-301)
chain: MADEPKPISPFKNLLAGGFGGMCLVFVGHPLDTVKVRLQTQPPSLSGQPPMYSGTLDCFRKTLMREGITGLYRGMAAPIIGVTPMFAVCFFGFGLGKKLQQKSPEDELSYPQLFTAGMLSGVFTTGIMTPGERIKCLLQIQASSGENKYSGTLDCAKKLYQEFGIRGFYKGTVLTLMRDVPASGMYFMTYEWLKNLFTPEGKSVSDLSVPRILVAGGFAGIFNWAVAIPPDVLKSRFQTAPPGKYPNGFRDVLRELIREEGVTSLYKGFNAVMIRAFPANAACFLGFEIAMKFLNWIAPNL
B6: mitochondrial contact site and cristae organizing system (MICOS) subunit 27 (protein, UniProt Q78IK4 28-265)
chain: EEEPKKQLVRPDQLPIYTAPPLHSKYVEEQPGNLQRGFASIRTTTVYYIGWCKSIYLFMKNGVMDTVQFGKDAYVYLKNPPQDFLPKMGVITASGLAGLLSARKGSRFKKIAYPLGLATLGATVCYPAQSVIIAKITGKKAYATSQQIFQAIKSLWTQKSENESLPEPKEESKEGRSDEIHASLPDLKHSVSLPKELASATVIKSESTSGTTQFIPDPKLMDHGQSHPDDKDMYSTRS
B7: mitochondrial contact site and cristae organizing system (MICOS) subunit 26 (protein, UniProt Q9DCZ4 24-198)
chain: APKKDSPHKSYMKIDELSLYSVPEGQSKYVEEPRTQLEENISQLRHHCEPYTSFCQEIYSHTKPKVDHFVQWGVDNYNYLQNAPPGFFPRLGVIGFAGFVGLLFARGSKIKKLVYPPFFMGLGASVYYPQQAITIAQITGEKLYDWGLRGYIVIEDLWKQNFQKPGNVKNSPGNK
B8: SLC25A11 (protein, UniProt Q9CR62 1-314)
chain: MAATASPGAGRMDGKPRTSPKSVKFLFGGLAGMGATVFVQPLDLVKNRMQLSGEGAKTREYKTSFHALTSILKTEGLKGIYTGLSAGLLRQATYTTTRLGIYTVLFERLTGADGTPPGFLLKALIGMTAGATGAFVGTPAEVALIRMTADGRLPADQRRGYKNVFNALVRIAREEGVPTLWRGCIPTMARAVVVNAAQLASYSQSKQFLLDSGYFSDNILCHFCASMISGLVTTAASMPVDIVKTRIQNMRMIDGKPEYKNGLDVLLKVVRYEGFFSLWKGFTPYYARLGPHTVLTFIFLEQMNKAYKRLFLSG
B9: SLC25A42 (protein, UniProt Q8R0Y8 1-318)
chain: MGNGVQEGSVRLREDAEAVLAGAVSSKRDHRQVLSSLLSGALAGALAKTAVAPLDRTKIIFQVSSKRFSAKEAFRLLYFTYLNEGFLSLWRGNSATMVRVIPYAAIQFSAHEEYKRILGHYYGFRGEALPPWPRLLAGALAGTTAASLTYPLDLVRARMAVTPKEMYSNIFHVFIRISREEGLKTLYFGFTPTVLGVIPYAGLSFFTYESLKSLHREYSGRPQPYPFERMVFGACAGLIGQSASYPLDVVRRRMQTAGVTGHQHGSILSTLRSIVREEGAVRGLYKGLSMNWLKGPIAVGISFTTFDLMQILLRRLQS
B10: SAMM50 (protein, UniProt Q8BGH2 1-469)
chain: MGTVHARSLEPLPSSGTDFGALGEEAEFVEVEPEAKQEILENKDVVVQHVHFDGLGRTKDDIIICEIGEVFKAKNLIEVMRRSHEAREKLLRLGIFRQVDVLIDTCHGEDALPNGLDVTFEVTELRRLTGSYNTMVGNNEGSMVLGLKLPNLLGRAEKVTFQFSYGTKETSYGLSFFKPQPGNFERNFSVNLYKVTGQFPWSSLRETDRGVSAEYSFPLWKTSHTVKWEGVWRELGCLSRTASFAVRKESGHSLKSSLSHAMVIDSRNSSILPRRGALFKVNQELAGYTGGDVSFIKEDFELQLNKPLALDSVFSTSLWGGMLVPIGDKPSSIADRFYLGGPTSVRGFSMHSIGPQSEGDYLGGEAYWAGGLHLYTPLPFRPGQGGFGELFRTHFFLNAGNLCNLNYGEGPKAHIRKLAECIRWSYGAGVVLRLGNIARLELNYCIPMGVQGGDRICDGVQFGAGIRFL
B11: mitochondrial contact site and cristae organizing system (MICOS) subunit 25 (protein, UniProt Q91VN4 1-273)
chain: MGSAESAEARRVSFEMDEEERVRVLQGIRLSESVVNRMKDCSQPSAGEQLVPGFGPSSSAPVPTVPLPAISVPTVPAPTTPVPTAPSSSVRGLPGGTCKGPLTDVKVPSAESGGGLQSSAVKEDLKKFQQEQLAVQDEMVRVAKKEKEAAEKHLKASLPKKKASLTHEQQQSARLARELEDREAELSRRDTFYKEQQGRIQEKNAELYKLSSQQFHEAASKAESTIKPRRVEPVCSGLQAQILRCYRDHLHEVLLCSDLVKAYQHCVSTARKG

This assay has as its target T1, Mitochondrial inner membrane protein (Mitofilin/Mic60) (mouse (endogenous in mouse cardiac mitochondria)). Put plainly: affinity purification with mass spectrometry; mitochondrial proteins from normal wild-type mouse hearts immunoprecipitated with an anti-Mitofilin antibody; eluate separated by SDS-PAGE, gel slices digested with trypsin, HPLC-ESI-MS/MS (Orbitrap Velos Pro); Mascot search of UniProt_mouse, Scaffold.
On to B1, for which the binding entry was “binds”.
As to B2, the binding entry is reported as “binds”.
For B3, the binding result is “binds”.
The entry for B4 is “binds”; for B5 it is “binds”; for B6 it is “binds”.
Turning to B7, the binding entry was “binds”.
Next, B8: “binds”; B9: “binds”; B10: “binds”.
The entry for B11 is “binds”.
